Taken from: PubChem BioAssay AID504774 (Drosophila RNAi Screening Center, 2011)
In all, the deposit lists about 23,000 reagents; below is an unselected part of those that have a named target and a result. 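Values are quantile-normalised luminescence on an arbitrary scale; higher means more cells surviving MMS.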 Reagents against one gene are numbered here. Names joined by + are all predicted targets of the reagent.

Assay: 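Fly genes whose loss alters survival after alkylation damage to DNA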 (primary screen)
System: Drosophila Kc167 cells
Reagent: long dsRNA against Drosophila genes, about 0.25 µg dsRNA per well
Time to read-out: about 6 days: 3 days knock-down, then 3 days with or without MMS
Conditions: methyl methanesulphonate 0.004% (w/v) for 3 days after knock-down
Measurement: 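Viability in wells given MMS, read as ATP luminescence, normalised by quantiles plate by plate and averaged across replicates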
Reading the numbers: mean viability with MMS and viability with MMS: higher = more surviving cells after MMS

target gene,reagent,mean viability with MMS,"viability with MMS, replicate 1","viability with MMS, replicate 2"
DIP1 (DISCO Interacting Protein 1),1,3.55e6,4.04e6,4.01e6
dnt (doughnut on 2),1,3.61e6,3.71e6,4.52e6
Dcp-1 (Death caspase-1),1,3.82e6,4.22e6,4.37e6
snsl (snustorr snarlik),1,3.52e6,4.00e6,3.97e6
COX1 (retired record),1,3.54e6,4.02e6,4.03e6
CG3117,1,3.38e6,3.75e6,3.85e6
Dlip2 (Dorsal interacting protein 2),1,3.58e6,4.04e6,4.06e6
Usp47 (Ubiquitin specific protease 47),1,3.51e6,3.99e6,3.97e6
CG42713,1,3.54e6,3.96e6,4.05e6
Ilp6 (Insulin-like peptide 6),1,3.58e6,3.87e6,4.26e6
TMEM216 + CG11760,1,3.69e6,4.16e6,4.22e6
Mct1 (Monocarboxylate transporter 1),1,3.50e6,3.97e6,3.98e6
CG13793,1,3.54e6,4.12e6,3.92e6
CG3032,1,3.49e6,3.96e6,3.96e6
Prip,1,3.87e6,4.36e6,4.32e6
Naam (Nicotinamide amidase),1,3.65e6,3.95e6,4.33e6
CG33287,1,3.49e6,3.95e6,3.99e6
Cnot4 (CCR4-NOT transcription complex subunit 4),1,3.58e6,4.04e6,4.08e6
Cnot4 (CCR4-NOT transcription complex subunit 4),2,3.58e6,4.02e6,4.11e6
Lime (Linking immunity and metabolism),1,3.33e6,3.73e6,3.86e6
CG8141,1,3.60e6,4.11e6,4.08e6
CG11703,1,3.68e6,4.15e6,4.14e6
Lrp4 (LDL receptor related protein 4),1,3.59e6,3.99e6,4.18e6
Myo61F (Myosin 61F),1,3.65e6,4.11e6,4.11e6
Mnr (Membrane-bound Notch regulator),1,3.45e6,3.88e6,3.96e6
Mnr (Membrane-bound Notch regulator),2,3.61e6,3.93e6,4.22e6
Mnr (Membrane-bound Notch regulator),3,3.42e6,3.98e6,3.86e6
mus302 (mutagen-sensitive 302),1,3.51e6,4.01e6,3.94e6
SLIRP2 (SRA stem-loop interacting RNA binding protein 2),1,3.61e6,4.06e6,4.13e6
CG17744,1,3.52e6,3.98e6,4.02e6
CG5114,1,3.56e6,4.00e6,4.05e6
CG8191,1,3.61e6,4.09e6,4.08e6
Plod (procollagen lysyl hydroxylase),1,3.66e6,4.18e6,4.13e6
Plod (procollagen lysyl hydroxylase),2,3.58e6,4.01e6,4.09e6
CG8303,1,3.45e6,3.86e6,3.94e6
CG32454,1,3.60e6,4.10e6,4.05e6
NimB4 (Nimrod B4),1,3.58e6,4.04e6,4.11e6
Frmd5 (FERM domain containing),1,3.58e6,3.98e6,4.15e6
CG10750,1,3.40e6,3.64e6,4.00e6
CG34384,1,3.67e6,4.15e6,4.10e6
CG34384,2,3.55e6,4.00e6,4.06e6
CG34384,3,3.53e6,3.95e6,4.07e6
CG34384,4,3.62e6,4.09e6,4.10e6
Or10a (Odorant receptor 10a),1,3.56e6,4.09e6,3.98e6
CG6304,1,3.12e6,3.47e6,3.55e6
CG5664,1,1.83e6,4.00e6,3.99e6
h-cup + Rbp,1,3.59e6,4.00e6,4.18e6
CG31908,1,3.76e6,4.26e6,4.16e6
CG31908,2,2.88e6,3.05e6,3.25e6

Next part (3 carried over from the part before).
target gene,reagent,mean viability with MMS,"viability with MMS, replicate 1","viability with MMS, replicate 2"
h-cup + Rbp,1,3.59e6,4.00e6,4.18e6
CG31908,1,3.76e6,4.26e6,4.16e6
CG31908,2,2.88e6,3.05e6,3.25e6
CG14095,1,3.53e6,3.98e6,4.02e6
mRpL24 (mitochondrial ribosomal protein L24),1,3.23e6,3.93e6,3.25e6
PK1-R (Pyrokinin 1 receptor),1,3.77e6,4.36e6,4.19e6
Ir93a (Ionotropic receptor 93a),1,3.48e6,3.86e6,4.03e6
Ir93a (Ionotropic receptor 93a),2,3.53e6,3.87e6,4.13e6
Tbca (Tubulin binding cofactor A),1,3.57e6,4.08e6,4.02e6
CG18004,1,3.72e6,4.04e6,4.40e6
brat (brain tumor),1,3.35e6,3.63e6,3.90e6
CG33514,1,3.35e6,3.63e6,3.63e6
CG33514,2,3.46e6,3.90e6,3.95e6
CG33514,3,3.57e6,4.07e6,4.05e6
U3-55K (U3 small nuclear riboprotein factor 55K),1,3.44e6,3.79e6,3.93e6
CG31953 (retired record) + gkt,1,3.50e6,3.87e6,4.05e6
Piezo,1,3.72e6,4.28e6,4.20e6
CG7191,1,3.48e6,3.88e6,4.01e6
Mdr49 (Multi drug resistance 49),1,3.39e6,3.91e6,3.74e6
Sirt4 (Sirtuin 4),1,3.65e6,4.17e6,4.12e6
CG9692,1,3.71e6,4.22e6,4.12e6
CG15044,1,3.37e6,3.79e6,3.80e6
CG15044,2,3.42e6,3.98e6,3.83e6
Cyt-c-d (Cytochrome c distal),1,3.49e6,3.93e6,3.99e6
Sodq (Sodesque),1,3.64e6,4.09e6,4.16e6
Tbc1d15-17 (TBC1 domain family member 15/17),1,3.31e6,3.72e6,3.65e6
Hgsnat (Heparan-alpha-glucosaminide N-acetyltransferase),1,3.59e6,4.13e6,4.07e6
Eig71Eg (Ecdysone-induced gene 71Eg),1,3.55e6,4.06e6,3.99e6
RpS9 (Ribosomal protein S9),1,2.99e6,3.59e6,3.62e6
cGlr2 (cGAS-like receptor 2),1,3.29e6,3.77e6,3.63e6
CG30082,1,3.56e6,3.99e6,4.05e6
Rlb1,1,3.64e6,4.12e6,4.06e6
Spn43Ad (Serpin 43Ad),1,3.62e6,4.07e6,4.08e6
Sdc (Syndecan),1,3.46e6,3.92e6,3.92e6
CG5265,1,3.54e6,4.13e6,3.92e6
ADD1 (ADD domain-containing protein 1),1,3.69e6,4.18e6,4.19e6
crn (crooked neck),1,2.89e6,3.65e6,3.65e6
crn (crooked neck),2,3.19e6,3.68e6,3.73e6
crn (crooked neck),3,2.88e6,3.64e6,3.64e6
Fer2 (48 related 2),1,3.55e6,3.77e6,4.30e6
gammaCOP (Coat Protein (coatomer) gamma),1,3.35e6,3.82e6,3.79e6
